Measured data: PubChem BioAssay AID1259405 (NCATS, 2018)
Shown is one part, drawn at random, of about 50,000 reagents tested. Over the whole deposit, about 4,000 (8%) are marked active. 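Mouse siRNA library applied to hamster cells; one well for each siRNA.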 Entries without a mark were called inactive. The numbers tell different reagents against one gene apart.

- Test: 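Silenced genes that increase secreted GFP made by CHO cells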 (primary screen)
- Cell system: Chinese hamster CHO-K1 ovary cells with stable secreted eGFP expression
- Reagent: single siRNA against mouse genes, 0.8 pmol siRNA per well (2 µl of 400 nM stock)
- Duration: 3 days
- Detection: 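Per-well intracellular GFP measured by laser scanning cytometry, plus viability from ATP luminescence, each relative to plate median of non-targeting control wells, in %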
- Direction: GFP, % of control: higher = more GFP per well, higher productivity; viability (ATP), % of control: higher = more viable cells (more ATP)
- Rule for the call: 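a knock-down is called active if GFP reaches 120% or more of non-targeting control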

Acaa1b #1
- GFP, % of control: 104
- viability (ATP), % of control: 45.2

Acaa1b #2
- GFP, % of control: 68.9
- viability (ATP), % of control: 85.5

Acaa1b #3
- GFP, % of control: 52.2
- viability (ATP), % of control: 54.3

Dab2ip #1
- GFP, % of control: 84.5
- viability (ATP), % of control: 76.5

Dab2ip #2
- GFP, % of control: 41
- viability (ATP), % of control: 27

Dab2ip #3
- GFP, % of control: 84.5
- viability (ATP), % of control: 65.5

Cacna2d1 #1
- GFP, % of control: 56.9
- viability (ATP), % of control: 81.5

Cacna2d1 #2
- GFP, % of control: 59.9
- viability (ATP), % of control: 27.5

Cacna2d1 #3
- GFP, % of control: 56.6
- viability (ATP), % of control: 56.4

Already shown: 2 of the entries above.
Acaa1b #2
- GFP, % of control: 68.9
- viability (ATP), % of control: 85.5

Acaa1b #3
- GFP, % of control: 52.2
- viability (ATP), % of control: 54.3

Continued:
Wdr24 #1
- GFP, % of control: 75.8
- viability (ATP), % of control: 62.1

Wdr24 #2
- GFP, % of control: 80.8
- viability (ATP), % of control: 64.7

Wdr24 #3
- GFP, % of control: 49.6
- viability (ATP), % of control: 47.9

Actr1a #1
- GFP, % of control: 72.4
- viability (ATP), % of control: 45

Actr1a #2
- GFP, % of control: 47.7
- viability (ATP), % of control: 64.3

Tmem208 #1
- GFP, % of control: 42.1
- viability (ATP), % of control: 82.9

Tmem208 #2
- GFP, % of control: 31.8
- viability (ATP), % of control: 84.1

Tmem208 #3
- GFP, % of control: 43.4
- viability (ATP), % of control: 70.4
